Some results were stated once for a whole list of compounds, not compound by compound. For at least one compound, name, drawing or mass did not settle the structure.
System: urethane-anesthetized female rats
Assay: Leak point pressure by direct compressing of the bladder (Example 4)
Format: in vivo, rat
Conditions: intravenous administration
Method: SD female rats (body weight 180-350 g) were anesthetized with urethane (Wako Pure Chemical Industries, Ltd.), and halothane (Takeda Pharmaceutical Company Limited) anesthesia was added when necessary during operation.
The spinal cord was transected at T8-9 level to eliminate the reflex voiding. The lower abdomen was incised in the median line, a catheter for intravesical pressure measurement (PE-90, Clay Adams) was inserted into the bladder and secured with a ligature, and the intravesical pressure was measured via a pressure transducer. Urine was emptized in advance by bilaterally pressing the bladder with two swabs, and a 0.1% Evans blue (Merck) solution (0.4 mL) was injected into the bladder. The bladder was gradually compressed bilaterally with two swabs, and the intravesical pressure upon saline leakage from the urethral orifice was measured and defined as a leak point pressure. […] Thereafter, the drug was intravenously administered, the leak point pressure was measured again 20 min later, and the value after the drug administration was determined. […] Depending on the experiment, RS-102221 or SB221284 (showing serotonin 5-HT2C receptor antagonist activity) was administered, 5 min later, WAY-161503 or WAY-163909 was administered, leak point pressure was measured 10 min later, and a competitive assay with the action of WAY-161503 or WAY-163909 was performed. […]

SMILES: c1cc2c3c(c1)[C@H]1CCC[C@H]1N3CCNC2 [WAY-163909]
- dose at which significant effects on the leak point pressure were observed: not less than 0.1 mg/kg
